Measured values published in patent publication US20090104633A1, “Kit for Highly Sensitive Detection Assays” (priority 2005, published 2009).
Marks after values point to notes of the source that are not given here.

Tests used:
[1] = system: monoclonal anti-2,4-D antibody clone E2/G2; test: Detection of active ester-labelled insulin on PVDF filterplates (HRP/TMB); format: binding, mouse; conditions: for Detection limit of labelled protein: mean ± SEM; for Detection limit of label: insulin conjugate, converted from pg protein with labelling degree (Table 6)
[2] = system: monoclonal anti-2,4-D antibody clone E4/C2; test: as above; format: binding, mouse; conditions: for Detection limit of labelled protein: mean ± SEM; for Detection limit of label: insulin conjugate, converted from pg protein with labelling degree (Table 6)
[3] = system: monoclonal anti-2,4-D antibody clone F6/C10; test: as above; format: binding, mouse; conditions: for Detection limit of labelled protein: mean ± SEM; for Detection limit of label: insulin conjugate, converted from pg protein with labelling degree (Table 6)
[4] = system: monoclonal anti-2,4-D antibody clone B7; test: as above; format: binding, mouse; conditions: for Detection limit of labelled protein: mean ± SEM; for Detection limit of label: insulin conjugate, converted from pg protein with labelling degree (Table 6)
[5] = system: Mouse anti-2,4-D monoclonal antibody clone E2/G2; test: Dot blot detection of hydrazide-labelled glycoprotein (porcine mucin) on nitrocellulose; format: binding; conditions: periodate-oxidized mucin; primary antibody clone E2/G2; AlexaFluor680 secondary antibody; mean ± SEM
[6] = system: Mouse anti-2,4-D monoclonal antibody clone E4/C2; test: as above; format: binding; conditions: periodate-oxidized mucin; primary antibody clone E4/C2; AlexaFluor680 secondary antibody; mean ± SEM
[7] = system: Mouse anti-2,4-D monoclonal antibody clone F6/C10; test: as above; format: binding; conditions: periodate-oxidized mucin; primary antibody clone F6/C10; AlexaFluor680 secondary antibody; mean ± SEM
[8] = system: Mouse anti-2,4-D monoclonal antibody clone B7; test: as above; format: binding; conditions: periodate-oxidized mucin; primary antibody clone B7; AlexaFluor680 secondary antibody; mean ± SEM
[9] = system: Mouse anti-2,4-D monoclonal antibody clone E2/G2; test: Dot blot detection of active ester-labelled ovalbumin on nitrocellulose; format: binding; conditions: ovalbumin conjugate; primary antibody clone E2/G2; AlexaFluor680 secondary antibody; mean ± SEM
[10] = system: Mouse anti-2,4-D monoclonal antibody clone F6/C10; test: as above; format: binding; conditions: ovalbumin conjugate; primary antibody clone F6/C10; AlexaFluor680 secondary antibody; mean ± SEM
[11] = system: Mouse anti-2,4-D monoclonal antibody clone B7; test: as above; format: binding; conditions: ovalbumin conjugate; primary antibody clone B7; AlexaFluor680 secondary antibody; mean ± SEM
[12] = system: monoclonal antibody against DIG clone 1.17.256; test: Detection of active ester-labelled insulin on PVDF filterplates (HRP/TMB); format: binding, mouse; conditions: anti-DIG clone 1.17.256
[13] = insulin labelled with oligoethyleneglycol-containing active esters
[14] = insulin conjugate on PVDF, HRP secondary antibody

Compound | Detection limit of labelled protein [1, 13] | Detection limit of labelled protein [2, 13] | Detection limit of labelled protein [3, 13] | Detection limit of labelled protein [4, 13] | Detection limit of proteins after labelling with hydrazide derivatives [5] | Detection limit of proteins after labelling with hydrazide derivatives [6] | Detection limit of proteins after labelling with hydrazide derivatives [7] | Detection limit of proteins after labelling with hydrazide derivatives [8] | Detection limit of proteins after labelling with active ester derivatives [9] | Detection limit of proteins after labelling with active ester derivatives [10] | Detection limit of proteins after labelling with active ester derivatives [11] | Detection limit of labelled protein [1, 14] | Detection limit of label [1] | Detection limit of labelled protein [2, 14] | Detection limit of label [2] | Detection limit of labelled protein [3, 14] | Detection limit of label [3] | Detection limit of labelled protein [4, 14] | Detection limit of label [4] | also measured
6-(2-(2,4-dichlorophenoxy)acetylamido)-PEG11-succinimidylester [(7a)] | 3,906.3 ± 0.3 pg | 732.9 ± 109.1 pg | 6,341.4 ± 3,120.3 pg | 6,508.8 ± 1,301.2 pg | – | – | – | – | – | – | – | – | – | – | – | – | – | – | – | –
NNC(=O)COc1ccc(Cl)cc1Cl [(1a), 2-(2,4-dichlorophenoxy)acetic acid-hydrazide] | – | – | – | – | 114.6 ± 10.4^ pg | 160.7 ± 23.1^ pg | 114.6 ± 10.4^ pg | 100.4 ± 28.5^(i) pg | – | – | – | – | – | – | – | – | – | – | – | –
O=C(COc1ccc(Cl)cc1Cl)ON1C(=O)CCC1=O [(1b)] | – | – | – | – | – | – | – | – | 161.5 ± 41.3 pg | 236.3 ± 62.6 pg | 323.7 ± 65.7 pg | 197,916.7 ± 42,020.3 pg | 17,950.1 ± 3,811.0 fMole | 9,114.6 ± 1,210.1 pg | 826.7 ± 109.8^(g) fMole | 180,555.6 ± 21,960.3 pg | 16,375.5 ± 1,991.7 fMole | 173,611.1 ± 25,038.6 pg | 15,745.7 ± 2,270.8 fMole | –
O=C(COc1ccc(Cl)cc1Cl)NCCCCCC(=O)ON1C(=O)CC(S(=O)(=O)[O-])C1=O.[Na+] (centres unmarked) [(3b), 6-(2-(2,4-dichlorophenoxy)acetylamino)-hexanoic acid-N-hydroxysulfosuccinimidyl-ester-sodium Salt] | – | – | – | – | – | – | – | – | 388.4 ± 72.1 pg | 253.9 ± 60.4 pg | 352.7 ± 71.8 pg | 915.6 ± 61.0^(d) pg | 257.1 ± 17.1^(d) fMole | 42.0 ± 7.5^(d) pg | 11.8 ± 2.1^(d) fMole | 1,519.1 ± 456.3^(d) pg | 426.6 ± 128.1^(d) fMole | 1,464.9 ± 369.1^(d) pg | 411.4 ± 103.7^(d) fMole | –
O=C(COc1ccc(Cl)cc1Cl)NCCCCCCCCCCC(=O)ON1C(=O)CC(S(=O)(=O)[O-])C1=O.[Na+] (centres unmarked) [(3d), 11-(2-(2,4-dichlorophenoxy)acetylamino)-undecanoic acid-N-hydroxysulfosuccinimidyl-ester-sodium Salt] | – | – | – | – | – | – | – | – | 625.0 ± 125.0^(g) pg | 386.7 ± 110.5^(g) pg | 625.0 ± 178.9^(g) pg | 160.2 ± 25.6^(f) pg | 10.6 ± 1.7^(f) fMole | 10.9 ± 1.6^(f) pg | 0.7 ± 0.1^(f) fMole | 133.5 ± 27.0^(f) pg | 8.9 ± 1.8^(f) fMole | 113.4 ± 8.7^(f) pg | 7.5 ± 0.6^(f) fMole | –
NNC(=O)CCCCCNC(=O)COc1ccc(Cl)cc1Cl [(4a), 6-(2-(2,4-dichlorophenoxy)acetylamino)-hexanoic acid-hydrazide] | – | – | – | – | 24.8 ± 4.4^(e) pg | 25.1 ± 8.0^(e) pg | 2.7 ± 0.4^(h) pg | 10.9 ± 1.8^(h) pg | – | – | – | – | – | – | – | – | – | – | – | –
NNC(=O)CCCCCCCCCCNC(=O)COc1ccc(Cl)cc1Cl [(4c), 11-(2-(2,4-dichlorophenoxy)acetylamino)-undecanoic acid-hydrazide] | – | – | – | – | 51.9 ± 13.8^(g) pg | 28.7 ± 9.4^(g) pg | 13.7 ± 1.3^(g) pg | 15.6 ± 0.0^(g) pg | – | – | – | – | – | – | – | – | – | – | – | –
C[C@]12CC[C@H](OCC(=O)NCCCCCC(=O)ON3C(=O)CCC3=O)C[C@H]1CC[C@@H]1[C@@H]2C[C@@H](O)[C@]2(C)[C@@H](C3=CC(=O)OC3)CC[C@]12O [DIG-C6-NHS, Digoxigenin-3-O-methylcarbonyl-ε-aminocaproyl-N-hydroxysuccinimide] | – | – | – | – | – | – | – | – | – | – | – | – | – | – | – | – | – | – | – | Detection limit of labelled protein ([12]; insulin conjugate on PVDF, HRP secondary antibody, mean ± SEM): 21,701.4 ± 3,129.8 pg; Detection limit of label ([12]; insulin conjugate, converted from pg protein with labelling degree (Table 6)): 5,677.5 ± 818.8 fMole
(6-(2-(2,4-dichlorophenoxy)acetylamido) undecanoylamido)-PEG11-succinimidylester [(7c)] | 68.8 ± 53.5^(b) pg | 45.8 ± 15.3^(b) pg | 366.1 ± 122.0 pg | 733.2 ± 244.4^(b) pg | – | – | – | – | – | – | – | – | – | – | – | – | – | – | – | –
(6-(2-(2,4-dichlorophenoxy)acetylamido)hexylamido)-PEG11-succinimidylester [(7b)] | 1,099.7 ± 307.5^(b) pg | 312.3 ± 58.0^(b) pg | 3,905.0 ± 1,381.2 pg | 2,541.5 ± 586.5^(b) pg | – | – | – | – | – | – | – | – | – | – | – | – | – | – | – | –
